Measured data: PubChem BioAssay AID504808 (Drosophila RNAi Screening Center, 2011)
The deposit covers about 21,000 reagents; this is an unselected part of those with a known target gene and a result. In the full data, 18 (0.084%) are marked active. 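Raw counts without plate normalisation, one of two replicates; the ratio scores behind the calls were not deposited.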 A plus sign joins genes that one reagent is predicted to hit. Not given: the amount of reagent, the time to read-out.

Screen: 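Fly genes required to hold E2F transcription in check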 (primary screen)
Cell system: Drosophila S2 cells
Knock-down reagent: long dsRNA against Drosophila genes
Measured: 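Dual luciferase plate measurements; E2F-specific signal taken as firefly over Renilla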
Scale: E2F firefly: higher = more E2F reporter activity; Renilla normaliser: higher = more normaliser reporter signal
Hit rule: 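Called active if the normalised E2F reporter went up by over 50%; the cutoff is arbitrary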

After knock-down of CG15522 [DRSC15059], the record shows E2F firefly, rep 1 = 1.14e5; Renilla normaliser, rep 1 = 6564; inactive.
Knock-down of Pif1 (Pif1 DNA helicase) [DRSC00582] gave: E2F firefly, rep 1 = 85136; Renilla normaliser, rep 1 = 3608; inactive.
Against CG7011 + Prp31 [DRSC10760] the deposit lists E2F firefly, rep 1 = 76211; Renilla normaliser, rep 1 = 3284; inactive.
For CG14566 [DRSC11727], the entry reads E2F firefly, rep 1 = 1.33e5; Renilla normaliser, rep 1 = 6564; inactive.
With knock-down of Sclp [DRSC19851] the results were E2F firefly, rep 1 = 8230; Renilla normaliser, rep 1 = 760; inactive.
Xpac (Xeroderma pigmentosum group A-like) [DRSC18730] scored E2F firefly, rep 1 = 1.09e5; Renilla normaliser, rep 1 = 5616; inactive.
After knock-down of CG17359 [DRSC10265] the results were E2F firefly, rep 1 = 1.56e5; Renilla normaliser, rep 1 = 6846; inactive.
With knock-down of CG3770 [DRSC04416] the results were E2F firefly, rep 1 = 74961; Renilla normaliser, rep 1 = 3200; inactive.
Sec10 (Secretory 10) [DRSC17053] scored E2F firefly, rep 1 = 68177; Renilla normaliser, rep 1 = 3073; inactive.
Silencing of Orcokinin [DRSC04202] gave: E2F firefly, rep 1 = 1.05e5; Renilla normaliser, rep 1 = 4207; inactive.
With knock-down of CG12898 [DRSC06213] the results were E2F firefly, rep 1 = 1.53e5; Renilla normaliser, rep 1 = 4972; inactive.
Against CG34224 [DRSC05269], the values are E2F firefly, rep 1 = 1.38e5; Renilla normaliser, rep 1 = 4956; inactive.
After knock-down of GstD9 (Glutathione S transferase D9) [DRSC14185] the results were E2F firefly, rep 1 = 1.47e5; Renilla normaliser, rep 1 = 6834; inactive.
Against Klp54D (Kinesin-like protein at 54D) [DRSC07450], the values are E2F firefly, rep 1 = 1.39e5; Renilla normaliser, rep 1 = 5054; inactive.
With knock-down of CG12576 [DRSC20621], the record shows E2F firefly, rep 1 = 1.36e5; Renilla normaliser, rep 1 = 5364; inactive.
CG4949 [DRSC19926] gave E2F firefly, rep 1 = 1.68e5; Renilla normaliser, rep 1 = 10318; inactive.
Cpsf73 (Cleavage and polyadenylation specificity factor 73) [DRSC16291] showed E2F firefly, rep 1 = 1.31e5; Renilla normaliser, rep 1 = 5935; inactive.
With knock-down of Klp10A (Kinesin-like protein at 10A) [DRSC19601] the results were E2F firefly, rep 1 = 7491; Renilla normaliser, rep 1 = 792; inactive.
After knock-down of r-cup (ryder cup) [DRSC20475], the record shows E2F firefly, rep 1 = 1.31e5; Renilla normaliser, rep 1 = 7638; inactive.

Reprinted from the listing, 3 entries:
CG7011 + Prp31 [DRSC10760] — E2F firefly, rep 1: 76211; Renilla normaliser, rep 1: 3284; Call: inactive
CG14566 [DRSC11727] — E2F firefly, rep 1: 1.33e5; Renilla normaliser, rep 1: 6564; Call: inactive
Sclp [DRSC19851] — E2F firefly, rep 1: 8230; Renilla normaliser, rep 1: 760; Call: inactive
